Earlier results in patent publication US7947467B2, “Methods for monitoring pathological conditions in a subject” (Common Sense Ltd., priority 2001, dated 2011).
At least one structure is not confirmed: it was looked up by name or label, or the drawing left a doubt.

O=S1(=O)OC(c2ccc(O)cc2)(c2ccc(O)cc2)c2ccccc21 [Phenol Red]
aqueous pH transition range: 6.8-8.2
